# Measured values reported in PubChem BioAssay AID504834 (National Center for Advancing Translational Sciences (NCATS), 2011).
# About 22,000 (6.9%) of roughly 320,000 compounds were called active. The shares of active, inactive and inconclusive entries below differ from those in the screen. The call rests on the fitted dose curve; in most records, active means well fitted inhibition curve with a large enough effect; inconclusive means small, poorly fitted or top-dose-only effect, or another doubt; inactive means no such curve, though single readings can be large or run the other way. Where the call is inconclusive, the potency comes from a doubtful curve fit.
# Assay: Primary qHTS for delayed death inhibitors of the malarial parasite plastid, 96 hour incubation
# Settings: P. falciparum luciferase reporter growth; series mostly up to 28.7 µM; activity change, negative = inhibition: at the top concentration
# In short: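 Delayed-death screen, second-generation endpoint: infected erythrocytes, 2% hematocrit, 0.05% parasitemia final; 96 hours at 37 C, 5% CO2; luciferase detection reagent; luminescence decrease equals reduced growth.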
# On the % scale 0 is the no-effect control and ±100 the full control effect; potency means the concentration at half of the fitted maximal effect.
Compound,"activity change, negative = inhibition",Potency
COc1ccccc1N=Cc1c(C)[nH]n(-c2ccc(C)cc2C)c1=O,inactive: 15.4%,–
COc1ccc(S(=O)(=O)Nc2ccc3c(c2)N(C(C)=O)CCC3)cc1OC,–,"inconclusive: 4.15 µM [inhibitor, single point]"
CN1CCN(c2ccc([N+](=O)[O-])c(NCc3ccco3)c2)CC1,–,"inconclusive: 10.4 µM [inhibitor, single point]"
CC(=O)N/N=C/c1cc([N+](=O)[O-])ccc1OCCOc1ccccc1,–,active: 6.57 µM
N#Cc1ccc(C(=O)CSc2n[nH]c(=O)n2-c2cccnc2)cc1,inactive: 44.5%,–
CC(c1ccccc1)N1CC(C(=O)Nc2ccc(F)cc2)CC1=O (centres undefined),–,"inconclusive: 10.4 µM [inhibitor, single point]"
CC(C)COC(=O)c1cc(=O)[nH]c2ccccc12,inactive: -19.7%,–
Cc1nn(C2CCS(=O)(=O)C2)c(Cl)c1/C=C/C(=O)OCC(=O)Nc1ccc2c(c1)OCO2 (centres undefined),–,"inconclusive: 0.928 µM [inhibitor, partial curve, poor fit]"
CCO[C@@H]1OC(C(=O)N2CCOCC2)=C[C@H](C)[C@H]1CCCO,inactive: 93.2%,–
Cc1cc(/C=N\NC(=O)CC(=O)NC2CCCCC2)c(C)n1-c1ccc(Cl)c(Cl)c1,–,"inconclusive: 1.04 µM [inhibitor, partial curve, poor fit]"
O=C(COc1ccc(Cl)cc1)N1CCN(C/C=C/c2ccccc2)CC1,–,"inconclusive: 13.1 µM [inhibitor, single point]"
CN1C(=O)CSc2ccc(NC(=O)N3CCc4ccccc43)cc21,–,"inconclusive: 11.7 µM [inhibitor, partial curve, poor fit]"
CC1CCN(C(=O)c2ccc(N(C)S(C)(=O)=O)cc2)CC1,–,"inconclusive: 10.4 µM [inhibitor, single point]"
CC(=O)Nc1ccc(S(=O)(=O)Nc2ccc(F)c([N+](=O)[O-])c2)cc1,–,"inconclusive: 10.4 µM [inhibitor, single point]"
O=C(c1cccs1)N1CCN(S(=O)(=O)c2ccccc2)CC1,inactive: -3.22%,–
Cc1cc(NC(=O)CSc2nnc(Nc3ccccc3C)s2)no1,–,"inconclusive: 0.104 µM [inhibitor, full curve, poor fit]"
COc1ccc(-c2cc(C(=O)N/N=C(\C)c3cccnc3)c3ccccc3n2)c(OC)c1,–,"inconclusive: 10.4 µM [inhibitor, single point]"
CCn1cc(C(=O)NCCCN2CCC(C)CC2)c(=O)c2cc(S(=O)(=O)N(C)C3CCCCC3)ccc21,–,"inconclusive: 4.65 µM [inhibitor, partial curve]"
CNc1nc(-c2ccccn2)nnc1-c1ccccc1,–,"inconclusive: 2.62 µM [inhibitor, full curve, poor fit]"
FC(F)(F)c1cnc(Sc2ncn[nH]2)c(Cl)c1,inactive: 24.5%,–
Cc1cccc(C)c1NC(=O)C[n+]1cc(-c2ccccc2)n2c1CCC2,–,active: 11.7 µM
N#C/C(=C\c1cccs1)C(=O)NCc1ccco1,–,"inconclusive: 4.15 µM [inhibitor, single point]"
Cc1cccc(C(=O)Nc2ccc(C(=O)/C=C/c3cccs3)cc2)c1,–,"inconclusive: 18.5 µM [inhibitor, single point]"
CCN(CC)CCN1CCn2c3c(c4cc(C)ccc42)CCCC31 (centres undefined),–,active: 9.28 µM
CCSc1sccc1C1C(C#N)=C(N)N(c2cccnc2)C2=C1C(=O)CCC2 (centres undefined),inactive: 239%,–

Compound,"activity change, negative = inhibition",Potency
Cc1ccnc2nc(C(=O)OCC(=O)NC(=O)NCc3ccco3)nn12,inactive: 30.9%,–
O=C(CCCC(=O)N1CCN(c2ccc([N+](=O)[O-])cc2)CC1)c1ccccc1,–,"inconclusive: 9.28 µM [inhibitor, partial curve]"
Cc1cccc(OCC(=O)Nc2ccccc2N2CCCCC2)c1C,–,active: 1.85 µM
C/C(=N/N=C1/NC(=O)CC(C(=O)O)S1)c1ccccc1 (centres undefined),inactive: 34.3%,–
O=S(=O)(Nc1ccc(-c2ccc3nncn3n2)cc1)c1ccccc1Cl,–,"inconclusive: 10.4 µM [inhibitor, single point]"
C/C(N)=C(/C#N)C(=O)CSc1nc(C2CCCCC2)n(-c2ccccc2)n1,–,"inconclusive: 4.15 µM [inhibitor, single point]"
COc1cccc(OCC(=O)O/N=C(\N)c2ccc(OC)c(OC)c2)c1,–,active: 6.57 µM
CCOC(=O)/C(C#N)=C1/C=CN(c2ccc(C)cc2)C=N1,inactive: 15.2%,–
O=C(CSc1nnc(-c2cccnc2)n1Cc1ccco1)c1ccc(Cl)c(Cl)c1,–,"inconclusive: 11.7 µM [inhibitor, partial curve, poor fit]"
CCN(CC)S(=O)(=O)c1ccc(NC(=O)COC(=O)c2ccc(NC(=O)CC#N)cc2)cc1,inactive: 51% [at 1.15 µM],–
COc1cccc(CN2CCN(Cc3cc(OC)c(OC)cc3OC)CC2)c1,inactive: 4.99%,–
Cc1nn(C)c(C)c1N1C(=O)c2cccc3c(N)ccc(c23)C1=O,–,"inconclusive: 8.28 µM [inhibitor, partial curve, poor fit]"
CN1CCC[C@@H]1Cc1c[nH]c2ccc(CCS(=O)(=O)c3ccccc3)cc12,–,"inconclusive: 15.1 µM [inhibitor, single point]"
Cc1ccc(NC(=O)c2ccc(Cl)c(S(=O)(=O)N3CCCC3)c2)nc1,–,"inconclusive: 6.57 µM [inhibitor, partial curve]"
COc1ccccc1CNCC(=O)N1CC(=O)Nc2ccccc21,inactive: -0.037%,–
CCOc1ccccc1OCCCC(=O)NC1CCCc2ccccc21 (centres undefined),–,"inconclusive: 18.5 µM [inhibitor, single point]"
O=C1c2ccccc2C(=O)C1c1nccc2ccccc12,inactive: 8.73%,–
COC(=O)c1sccc1NC(=O)CC1C(=O)NCCN1C(=O)Nc1ccc(OCc2ccccc2)cc1 (centres undefined),–,"inconclusive: 13.1 µM [inhibitor, single point]"
N#Cc1sc2nc(C3CC3)cc(-c3ccccc3)c2c1N,inactive: 8.72%,–
Cc1c(C#N)c2ccccc2n1CC(=O)NCC1CCCO1 (centres undefined),–,"inconclusive: 11.7 µM [inhibitor, single point]"
COc1cc2c(cc1OC)C(COc1ccc([N+](=O)[O-])cc1)NCC2 (centres undefined),inactive: 9.35%,–
CCOc1cc(C2NC(=O)c3ccccc3O2)ccc1OC(C)C (centres undefined),–,"inconclusive: 10.4 µM [inhibitor, single point]"
C=CCn1c(CCCNC(=O)CCC)nc2ccccc21,inactive: 57.7%,–
Cc1csc(NC(=O)c2ccc(C(=O)Nc3nc(C)cs3)cc2)n1,–,"inconclusive: 3.29 µM [inhibitor, single point]"
CCOc1ccc(-n2c(C)cc(/C=N/NC(=O)C(N)=O)c2C)cc1,inactive: -0.188%,–

Compound,"activity change, negative = inhibition",Potency
O=C1NC2(CCCC2)C(=O)N1CC(=O)N(Cc1ccccc1)c1ccccc1,inactive: 3.33%,–
Cc1c(C(=O)O)sc2nc(-c3cccs3)cc(C(F)(F)F)c12,inactive: -24.6%,–
O=C(Nc1nccs1)c1ccc(COc2ccccc2Cl)o1,–,"inconclusive: 18.5 µM [inhibitor, single point]"
CCN1CCN(c2ccc(N3CCN(C(=O)c4ccc(Br)o4)CC3)nn2)CC1,inactive: -25.8%,–
O=c1ccnc2n1COCS2,inactive: 35.9%,–
C=CCN(c1ccccc1)S(=O)(=O)c1cccc(C(=O)OCC(=O)NC2CC2)c1,–,"inconclusive: 8.28 µM [inhibitor, partial curve, poor fit]"
COc1ccccc1NC(=O)C1Cc2ccccc2CN1C(=O)c1ccco1 (centres undefined),inactive: -18.9%,–
O=C(COC(=O)/C=C/c1cccc(C(F)(F)F)c1)NCc1ccccc1,inactive: 13%,–
O=C(c1cc2c(s1)-c1ccccc1OC2)N1CCc2ccccc2C1,–,"inconclusive: 18.5 µM [inhibitor, single point]"
Cc1sc2ncnc(SC(C)C(=O)N3c4ccccc4Sc4ccccc43)c2c1C (centres undefined),–,active: 7.38 µM
OCCNc1ncnc2c1c(-c1ccccc1)c(-c1ccccc1)n2Cc1ccco1,inactive: -15.3%,–
CCC(C)c1ccc2oc(-c3ccc(NC(=O)Cn4cnc5c(=O)n(C)c(=O)n(C)c54)cc3)nc2c1 (centres undefined),–,"inconclusive: 5.86 µM [inhibitor, partial curve]"
CN1C(C(=O)NCC2CC2)CC2Cn3c(nc4cc(Cl)c(Cl)cc43)C21 (centres undefined),–,"inconclusive: 13.1 µM [inhibitor, partial curve, poor fit]"
O=C(Oc1ccc2ccc(=O)oc2c1)N1CCOCC1,–,"inconclusive: 14.7 µM [inhibitor, partial curve, poor fit]"
COc1cc(Cn2c(=O)c3c(OC)c(C)cnc3n(C)c2=O)cc(OC)c1,–,"inconclusive: 20.8 µM [inhibitor, single point]"
O=C(Nc1ccc(Cl)cc1)N1N=CCC1c1ccccc1 (centres undefined),–,"inconclusive: 18.5 µM [inhibitor, single point]"
O=C(c1cccc(F)c1)N1C2C=CC(C2)C1(C(F)(F)F)C(F)(F)F (centres undefined),–,"inconclusive: 4.15 µM [inhibitor, single point]"
COc1ccc(CCC(=O)N2CCN(S(=O)(=O)c3ccc(C)cc3)CC2)cc1,–,"inconclusive: 18.5 µM [inhibitor, single point]"
CN1CCC(NC(=O)CCc2ccccc2)CC1,–,"inconclusive: 18.5 µM [inhibitor, single point]"
O=C(NCc1ccco1)c1ccc(Cn2c(=O)c3ccccc3n(Cc3ccc(Cl)cc3)c2=O)cc1,inactive: -30.4%,–
O=C(CSc1nnc(-c2cccs2)o1)N1CCCCC1,–,"inconclusive: 9.28 µM [inhibitor, single point]"
COC(=O)CCC(=O)N1CCCC(C(=O)c2cc(F)ccc2F)C1 (centres undefined),inactive: 4.19%,–
Cn1c(C(=O)N2CCCC(C(=O)NCCCSC3CCCCC3)C2)cc2sccc21 (centres undefined),inactive: 42.1%,–
O=C(Nc1ccccc1C(=O)N/N=C/c1ccc(F)cc1)c1ccccc1Br,–,"inconclusive: 10.4 µM [inhibitor, single point]"

# 14 structures from above, arranged by number of heavy atoms, high to low.
Compound,"activity change, negative = inhibition",Potency
CCC(C)c1ccc2oc(-c3ccc(NC(=O)Cn4cnc5c(=O)n(C)c(=O)n(C)c54)cc3)nc2c1 (centres undefined),–,"inconclusive: 5.86 µM [inhibitor, partial curve]"
OCCNc1ncnc2c1c(-c1ccccc1)c(-c1ccccc1)n2Cc1ccco1,inactive: -15.3%,–
Cn1c(C(=O)N2CCCC(C(=O)NCCCSC3CCCCC3)C2)cc2sccc21 (centres undefined),inactive: 42.1%,–
C=CCN(c1ccccc1)S(=O)(=O)c1cccc(C(=O)OCC(=O)NC2CC2)c1,–,"inconclusive: 8.28 µM [inhibitor, partial curve, poor fit]"
O=C1NC2(CCCC2)C(=O)N1CC(=O)N(Cc1ccccc1)c1ccccc1,inactive: 3.33%,–
COc1cc(Cn2c(=O)c3c(OC)c(C)cnc3n(C)c2=O)cc(OC)c1,–,"inconclusive: 20.8 µM [inhibitor, single point]"
O=C(COC(=O)/C=C/c1cccc(C(F)(F)F)c1)NCc1ccccc1,inactive: 13%,–
CN1C(C(=O)NCC2CC2)CC2Cn3c(nc4cc(Cl)c(Cl)cc43)C21 (centres undefined),–,"inconclusive: 13.1 µM [inhibitor, partial curve, poor fit]"
O=C(c1cccc(F)c1)N1C2C=CC(C2)C1(C(F)(F)F)C(F)(F)F (centres undefined),–,"inconclusive: 4.15 µM [inhibitor, single point]"
Cc1c(C(=O)O)sc2nc(-c3cccs3)cc(C(F)(F)F)c12,inactive: -24.6%,–
O=C(Nc1ccc(Cl)cc1)N1N=CCC1c1ccccc1 (centres undefined),–,"inconclusive: 18.5 µM [inhibitor, single point]"
O=C(CSc1nnc(-c2cccs2)o1)N1CCCCC1,–,"inconclusive: 9.28 µM [inhibitor, single point]"
CN1CCC(NC(=O)CCc2ccccc2)CC1,–,"inconclusive: 18.5 µM [inhibitor, single point]"
O=c1ccnc2n1COCS2,inactive: 35.9%,–
